# Measurements as given in publication PMC9688808, “Discovery of Novel Lin28 Inhibitors to Suppress Cancer Cell Stemness” (Cancers, 2022).
# The exact form of at least one protein or probe is not confirmed. At least one verdict was read from the data and is not stated in words by the source. Where a protein sequence is shown, tags need not be part of it.
# Experiments:
# [1] = target: T1, Lin28A ZKD (Homo sapiens) (UniProt Q9H9Z2); test: fluorescence polarization; conditions: 10 uM protein, 1 nM probe, signal suppressed by Ln7, Ln15, Ln115; FP: 30 uL, room temperature, 20 min, buffer not stated; recombinant protein; residues 121-187; protein details: His
# T1 sequence (looked up): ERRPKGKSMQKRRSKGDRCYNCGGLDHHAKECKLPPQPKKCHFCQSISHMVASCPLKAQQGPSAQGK
# [2] = target: T2, Lin28B CSD+ZKD (Homo sapiens) (UniProt Q6ZN17); test: fluorescence polarization; conditions: compound screening assay; FP: 30 uL, room temperature, 20 min, buffer not stated; recombinant protein; residues 7-204; protein details: His
# T2 sequence (looked up): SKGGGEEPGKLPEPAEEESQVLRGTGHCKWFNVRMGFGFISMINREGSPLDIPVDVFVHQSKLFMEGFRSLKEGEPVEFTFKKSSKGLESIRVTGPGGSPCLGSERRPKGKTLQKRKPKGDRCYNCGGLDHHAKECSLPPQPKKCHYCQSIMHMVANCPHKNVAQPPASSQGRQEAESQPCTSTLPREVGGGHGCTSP
sequence,measurement,setting,value
UUAGGGCACGAGAUUUUGCCCACAAGGAGUU [FAM-Let-7 probe],binding result,[1],binds
same,binding result,[2],binds
